Data source: PubChem BioAssay AID1159584 (Peter MacCallum Cancer Centre, 2016)
Screen: 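Genes whose loss is lethal only together with E-cadherin loss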 (primary screen). System: human MCF10A breast epithelial cells, parental and CDH1-null. Reagents: siRNA against human genes. Read-out: 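ATP luminescence (CellTiter-Glo) viability per line relative to mean mock wells over all plates, and the ratio of CDH1-null to parental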. Direction: CDH1-null / parental viability ratio: higher = CDH1-null cells survive relatively better than parental.
This is an unselected part of about 18,000 deposited reagents. Reagents against one gene are numbered here. Not all columns of the deposit are shown. The record does not give: the amount of reagent, the time to read-out.

CDH1-null / parental viability ratio, by gene and reagent
PRKD3 (GeneID 23683): #1 1.19
HSD17B7 (GeneID 51478): #1 0.83
LRRC34 (GeneID 151827): #1 1.14
PDCD5 (GeneID 9141): #1 1.23
TRIM64C (GeneID 646754): #1 0.97; #2 1.06
DUSP7 (GeneID 1849): #1 1.34
NLRP8 (GeneID 126205): #1 1.08
ZNF33B (GeneID 7582): #1 1.15
ZNF185 (GeneID 7739): #1 0.75
HOPX (GeneID 84525): #1 0.84
CEP250 (GeneID 11190): #1 1.24
FAHD2A (GeneID 51011): #1 0.84
IL17D (GeneID 53342): #1 0.98
MRPL11 (GeneID 65003): #1 1.17
PLPP2 (GeneID 8612): #1 1.94
C1orf115 (GeneID 79762): #1 0.85
CHRNA5 (GeneID 1138): #1 1.14
VPREB1 (GeneID 7441): #1 0.95
GPCPD1 (GeneID 56261): #1 0.74
SLC6A15 (GeneID 55117): #1 0.94
SHH (GeneID 6469): #1 1.25
DOCK1 (GeneID 1793): #1 1.15
OR52B6 (GeneID 340980): #1 1.12
CCT6A (GeneID 908): #1 0.96
PRP4K (GeneID 8899): #1 0.84
DDX18 (GeneID 8886): #1 0.84
CLCA3P (GeneID 9629): #1 1.04
LONRF2 (GeneID 164832): #1 1.02
SLC8A1 (GeneID 6546): #1 1.2

No new results follow: 6 of the entries above.
CDH1-null / parental viability ratio, by gene and reagent
CEP250 (GeneID 11190): #1 1.24
FAHD2A (GeneID 51011): #1 0.84
IL17D (GeneID 53342): #1 0.98
MRPL11 (GeneID 65003): #1 1.17
PLPP2 (GeneID 8612): #1 1.94
C1orf115 (GeneID 79762): #1 0.85

Continued.
CDH1-null / parental viability ratio, by gene and reagent
CCT2 (GeneID 10576): #1 1.32
OR51B6 (GeneID 390058): #1 1.06
REPS2 (GeneID 9185): #1 1.12
TSPAN18 (GeneID 90139): #1 1.28
CMTM3 (GeneID 123920): #1 0.85
SREK1IP1 (GeneID 285672): #1 0.83
SLC9A8 (GeneID 23315): #1 1.05
EIF1B (GeneID 10289): #1 0.8
CXCR2 (GeneID 3579): #1 0.89
RUBCNL (GeneID 80183): #1 0.94
TAL1 (GeneID 6886): #1 0.71
H1-7 (GeneID 341567): #1 0.99
ZNF511 (GeneID 118472): #1 0.75
PPM1B (GeneID 5495): #1 1.6
SOX11 (GeneID 6664): #1 1.13
PIK3R1 (GeneID 5295): #1 0.89
GTF3C4 (GeneID 9329): #1 0.95
HOXC5 (GeneID 3222): #1 1.59
CFAP74 (GeneID 85452): #1 1.08; #2 0.94
PTCD2 (GeneID 79810): #1 1.5
BARHL2 (GeneID 343472): #1 0.98
NEU3 (GeneID 10825): #1 0.78
CEACAM16 (GeneID 388551): #1 0.85
NFIC (GeneID 4782): #1 0.65
S100A14 (GeneID 57402): #1 0.92
KAT5 (GeneID 10524): #1 1.16
ERG28 (GeneID 11161): #1 0.76
MKNK1 (GeneID 8569): #1 1.11
CSPP1 (GeneID 79848): #1 0.82
NDUFA6 (GeneID 4700): #1 1.25
FGF23 (GeneID 8074): #1 1.2
P4HA3 (GeneID 283208): #1 1.31
TMEM207 (GeneID 131920): #1 0.95
DUSP29 (GeneID 338599): #1 1.1
ABLIM2 (GeneID 84448): #1 1.1
CD24 (GeneID 100133941): #1 1.08
H2AC1 (GeneID 221613): #1 1.01
